# The whole screen tested about 390,000 compounds, of which about 4,000 (1%) were called active. The shares of active, inactive and inconclusive entries below differ from those in the screen. Calls come from the whole dose curve; as a rule, active = well fitted inhibition curve with a large enough effect; inconclusive = small, poorly fitted or top-dose-only effect, or another doubt; inactive = no such curve, though single readings can be large or run the other way. Where the call is inconclusive, the potency comes from a doubtful curve fit.
# Amino acid sequences for entries named in this document (tags omitted). A change or cut given only in a name is not applied to a line headed by its entry.
# UniProt Q9UNA4: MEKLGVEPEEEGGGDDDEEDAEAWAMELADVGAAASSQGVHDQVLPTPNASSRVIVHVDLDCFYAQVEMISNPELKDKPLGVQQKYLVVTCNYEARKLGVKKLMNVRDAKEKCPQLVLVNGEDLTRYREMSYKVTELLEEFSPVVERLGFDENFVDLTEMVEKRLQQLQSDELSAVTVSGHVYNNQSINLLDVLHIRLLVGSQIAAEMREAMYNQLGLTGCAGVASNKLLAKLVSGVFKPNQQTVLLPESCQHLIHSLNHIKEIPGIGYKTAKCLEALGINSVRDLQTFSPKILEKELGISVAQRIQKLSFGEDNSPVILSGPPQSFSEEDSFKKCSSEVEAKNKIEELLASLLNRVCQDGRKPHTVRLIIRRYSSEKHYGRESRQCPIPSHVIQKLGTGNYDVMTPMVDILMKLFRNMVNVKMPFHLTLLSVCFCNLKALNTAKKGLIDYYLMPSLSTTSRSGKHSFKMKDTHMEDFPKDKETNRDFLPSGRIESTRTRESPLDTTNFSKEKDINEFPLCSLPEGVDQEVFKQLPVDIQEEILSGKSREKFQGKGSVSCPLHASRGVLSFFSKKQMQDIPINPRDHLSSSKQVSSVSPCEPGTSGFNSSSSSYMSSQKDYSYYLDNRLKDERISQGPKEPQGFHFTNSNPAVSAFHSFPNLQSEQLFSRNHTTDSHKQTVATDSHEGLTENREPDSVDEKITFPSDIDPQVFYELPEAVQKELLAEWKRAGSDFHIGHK
# Target: DNA polymerase iota (Homo sapiens) (UniProt Q9UNA4)
# Assay: qHTS for Inhibitors of Polymerase Iota
# Details: Pol iota fluorescent replication assay, 10 min; series mostly up to 115 µM; activity, negative = inhibition: at the top concentration
# Method in brief: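 Pol iota at 10 nM preincubated 15 min with compounds at room temperature; reaction started with fluorescent substrate, 50 nM final. Fluorescence read kinetically at 0 and 10 min; buffer-only wells as negative control.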
# Potency is the fitted concentration of half-maximal effect.
Compound,"activity, negative = inhibition",Potency
COC(=O)c1c(-c2cccs2)csc1NC(=O)c1ccc(C(C)C)cc1,inactive: 13.5%,
CC(C)(C)C1CCc2c(sc(NC(=O)CSc3nnc(-c4ccccc4)o3)c2C#N)C1 (stereo not drawn),,"inconclusive: 39.8 µM [inhibitor, single point]"
COC(=O)c1ccccc1NC(=O)CCS(=O)(=O)c1nc(-c2ccc3c(c2)OCO3)cc(C(F)(F)F)n1,,"inconclusive: 22.4 µM [inhibitor, partial curve, poor fit]"
O=c1c(Cl)c(N/N=C/c2ccc(Br)cc2)cnn1-c1ccccc1,,"inconclusive: 56.2 µM [inhibitor, partial curve, poor fit]"
Cc1ccc(S(=O)(=O)N2CCSC2c2ccco2)cc1 (stereo not drawn),,"inconclusive: 14.1 µM [inhibitor, partial curve, poor fit]"
Cc1cc(C)n2nc(C(=O)N/N=C/c3c4ccccc4cc4ccccc34)nc2n1,inactive: -1.22%,
C=CCSc1nnc(NC(=O)c2cccc(S(=O)(=O)N(C)c3ccccc3)c2)s1,,"inconclusive: 79.4 µM [inhibitor, single point]"
CC1(C)CC2CC(C)(CN2C(=O)COC(=O)c2ccc(O)cc2O)C1 (stereo not drawn),,"inconclusive: 44.7 µM [inhibitor, partial curve, poor fit]"
O=c1[nH]c(SCc2c(F)cccc2Cl)nc2c1CCCC2,inactive: -0.56%,
CC(=O)c1cccc(NS(=O)(=O)c2cccc(S(=O)(=O)c3ccc(Br)cc3)c2)c1,inactive: -4.34%,
COc1ccc(NC(=O)c2cc3c(C)nn(-c4ccccc4)c3s2)c(OC)c1,inactive: 14.2%,
Cc1cc(C)nc(NC(=O)c2cc(-c3ccc4c(c3)OCO4)nc3ccccc23)c1,,"inconclusive: 12.6 µM [inhibitor, full curve, poor fit]"
CCCS(=O)(=O)c1ncc(Cl)c(C(=O)Nc2sc3c(c2C(=O)NCC)CCCC3)n1,inactive: 9.56%,
CC(=O)Nc1cccc(-c2csc(NCc3ccco3)n2)c1,,"inconclusive: 15.8 µM [inhibitor, partial curve, poor fit]"
S=C1NCN(C2CCCCC2)CN1CCc1ccccc1,inactive: -2.74%,
O=C(NC(=S)NNC(=O)c1ccccc1F)c1cccnc1,,"inconclusive: 14.1 µM [inhibitor, partial curve]"
C=C1CCc2c([nH]c3ccc(OCC(C)C)cc23)C1=O,,"inconclusive: 3.55 µM [inhibitor, full curve]"
Cc1ccc(/C=C2\SC(=S)N(CCC(=O)NNC(=O)c3ccncc3)C2=O)cc1,,"inconclusive: 11.2 µM [inhibitor, full curve, poor fit]"
O=C(Cn1ccsc1=NC(=O)c1ccco1)c1ccccc1,,"inconclusive: 31.6 µM [inhibitor, partial curve, poor fit]"
Nc1cc(Cl)ccc1Oc1ccc(Cl)cc1,,"inconclusive: 14.1 µM [inhibitor, partial curve, poor fit]"
COc1cc(OC)cc(-c2c(-c3ccsc3)c3cc(Br)ccc3n2C)c1,,"inconclusive: 12.6 µM [inhibitor, partial curve, poor fit]"

# Reformatted with tabs: five of the compounds above
Compound	activity, negative = inhibition	Potency
Cc1cc(C)n2nc(C(=O)N/N=C/c3c4ccccc4cc4ccccc34)nc2n1	inactive: -1.22%	
C=CCSc1nnc(NC(=O)c2cccc(S(=O)(=O)N(C)c3ccccc3)c2)s1		inconclusive: 79.4 µM [inhibitor, single point]
CC1(C)CC2CC(C)(CN2C(=O)COC(=O)c2ccc(O)cc2O)C1 (stereo not drawn)		inconclusive: 44.7 µM [inhibitor, partial curve, poor fit]
O=c1[nH]c(SCc2c(F)cccc2Cl)nc2c1CCCC2	inactive: -0.56%	
CC(=O)c1cccc(NS(=O)(=O)c2cccc(S(=O)(=O)c3ccc(Br)cc3)c2)c1	inactive: -4.34%	

# Further structures:

Compound,"activity, negative = inhibition",Potency
CCOC(=O)C1CCN(C(C(=O)NC2CCCCC2)c2ccc(OC)cc2)CC1 (stereo not drawn),,"inconclusive: 35.5 µM [inhibitor, single point]"
CCCn1c(C2CCCN2c2nc(-c3ccc(OC)cc3)cs2)nc2ccccc21 (stereo not drawn),,"inconclusive: 28.2 µM [inhibitor, partial curve, poor fit]"
CC(C)OP(=O)(OC(C)C)C1(NS(=O)(=O)c2ccc(Cl)cc2)C=C(Cl)C(=O)C(Cl)=C1,,"inconclusive: 5.62 µM [inhibitor, partial curve, poor fit]"
Cc1nn(-c2ccc(N3CCCC3)nn2)c(C)c1CCC(=O)N1CCN(c2ccccc2F)CC1,inactive: 27.2%,
CCOC(=O)c1c(-c2ccccc2)nnn1-c1nc(OCC)nc(N2CCCCC2)n1,,"inconclusive: 39.8 µM [inhibitor, single point]"
CC(=O)O[C@H]1CC(=O)OC(C)(C)C2CC(=O)[C@]3(C)C(CC[C@@](C)([C@@H](O[C@@H]4O[C@H](CO)[C@@H](O)[C@H](O)[C@H]4O)c4ccoc4)[C@@]34O[C@@H]4C(=O)O)[C@]21C (stereo partly drawn),,"inconclusive: 31.6 µM [inhibitor, single point]"
CCCCNC(=O)Nc1ccccc1C(=O)NCc1ccco1,,"inconclusive: 20 µM [inhibitor, partial curve, poor fit]"
CCCSc1cc(N2CCOCC2)nc(-c2ccccc2Cl)n1,inactive: -5.48%,
Cc1ccccc1-n1c2nc(=O)n(C)c(=O)c-2cc2ccccc21,inactive: -8.01%,
O=C(/C=C/c1cc(Br)ccc1O)c1ccco1,,"inconclusive: 14.1 µM [inhibitor, partial curve]"
NCCCC[C@H](N)c1nnc([C@H](CC(=O)O)NC(=O)C2CCNCC2)o1,,"inconclusive: 2.24 µM [inhibitor, partial curve, poor fit]"
O=C(O)c1cccc(-n2cc(-c3cccc(C(F)(F)F)c3)cn2)c1,,"inconclusive: 39.8 µM [inhibitor, partial curve, poor fit]"
c1cc2cc(-c3c(-c4ccc5c(c4)OCO5)noc3-c3ccsc3)ccc2[nH]1,,"inconclusive: 17.8 µM [inhibitor, partial curve, poor fit]"
C=C(C)C(=O)Nc1cccc(C2=NOC3(C2)C[C@@H](C(N)=O)N(C(=O)c2cc([N+](=O)[O-])cc([N+](=O)[O-])c2C)C3)c1 (stereo partly drawn),,"inconclusive: 39.8 µM [inhibitor, full curve]"
CC(C)(C)c1nc(CN2CCCCC2)cc(CN2CCCCC2)c1O,,"inconclusive: 8.91 µM [inhibitor, partial curve, poor fit]"
Cc1ccc2nc(NC(=O)Cn3cc4c(n3)CCCCC4)sc2c1,,"inconclusive: 20 µM [inhibitor, full curve]"
N#C/C(=C\c1ccc(-c2ccc(F)cc2)o1)C(=O)Nc1nc(-c2cccs2)cs1,inactive: -7.6%,
COCCn1nnnc1C(c1ccc(Cl)cc1)N1CCSCC1 (stereo not drawn),,"inconclusive: 10 µM [inhibitor, partial curve, poor fit]"
CCN1CCN(c2nc3c(c(=O)n(C)c(=O)n3C)n2Cc2cccc3ccccc23)CC1,,"inconclusive: 79.4 µM [inhibitor, partial curve, poor fit]"
CC1(C)c2ccccc2N2CCC(=O)NC21/C=C/c1ccco1 (stereo not drawn),,"inconclusive: 28.2 µM [inhibitor, single point]"
CC(CN1CCCC1)OC(=O)c1ccc(Br)cc1 (stereo not drawn),,"inconclusive: 79.4 µM [inhibitor, single point]"

Compound,"activity, negative = inhibition",Potency
Cc1nn(-c2ccccc2)c(Cl)c1C(=O)NCc1cccs1,,"inconclusive: 112 µM [inhibitor, partial curve, poor fit]"
O=C(Nc1nnc(-c2ccccc2)o1)c1cccc(N2C(=O)CCC2=O)c1,inactive: 14%,
Nc1ncnc2c1ncn2-c1ccccc1Cl,inactive: 87.5%,
COc1ccccc1NC(=O)CSc1nc2c(oc3ccccc32)c(=O)n1Cc1ccco1,inactive: 9.69%,
Clc1cccc(-n2cc(-c3ccccc3)c3c(NC4CCCC4)ncnc32)c1,,"inconclusive: 89.1 µM [inhibitor, partial curve, poor fit]"
Cc1c(OCC(=O)N[C@H](C(=O)O)c2ccccc2)ccc2c3c(c(=O)oc12)CCCC3,,"inconclusive: 63.1 µM [inhibitor, partial curve, poor fit]"
Cc1ccc(N=C2NC(=O)/C(=C\c3ccco3)S2)cc1,,active: 31.6 µM
O=C(Cc1ccc(S(=O)(=O)N2CCOCC2)s1)Nc1ccc(S(=O)(=O)N2CCCCC2)cc1,inactive: -7.55%,
COCC(=O)Nc1ccc(N2CCOCC2)c(S(=O)(=O)Nc2ccccc2OC)c1,,"inconclusive: 25.1 µM [inhibitor, partial curve, poor fit]"
CCOc1ccc2c(c1)c(=O)c(S(=O)(=O)c1ccc(C)cc1)cn2Cc1ccccc1Cl,inactive: -12.2%,
CCOC(=O)c1c(N)sc(C(O)(C(F)(F)F)C(F)(F)F)c1-c1ccc(F)cc1,,"inconclusive: 28.2 µM [inhibitor, full curve, poor fit]"
Cc1ccc(C)c(S(=O)(=O)N(C)Cc2cccs2)c1,inactive: 0.686%,
Cc1cc(S(=O)(=O)N2CCOCC2)ccc1F,,"inconclusive: 3.55 µM [inhibitor, partial curve, poor fit]"
CC1=C(C(=O)OC(C)C)C(c2ccc(Cl)cc2)n2c(s/c(=C\c3ccc(OCC(=O)O)cc3)c2=O)=N1 (stereo not drawn),,"inconclusive: 3.16 µM [inhibitor, partial curve, poor fit]"
COc1cc(/C=C/C(=O)c2ccc(C)cc2)ccc1OCC#N,,"inconclusive: 56.2 µM [inhibitor, partial curve, poor fit]"
C#CCOn1c(-n2nc(C)cc2C)nc2ccccc2c1=O,,"inconclusive: 39.8 µM [inhibitor, single point]"
c1ccc(CCCCN2C(Nc3ccccc3)=NC[C@@H]2Cc2ccccc2)cc1,,"inconclusive: 25.1 µM [inhibitor, single point]"
CC(C)Cc1nnc(NC(=O)c2cc3c(s2)CCC3)s1,,active: 28.2 µM
Cc1cc(O)c(C=O)c2c1C(=O)Oc1c(CO)c(O)c3c(c1O2)C(O)OC3=O (stereo not drawn),,active: 1.12 µM
COc1ccc(/C=C/C(=O)c2ccc(O)cc2)cc1COc1ccc(F)cc1,,"inconclusive: 28.2 µM [inhibitor, partial curve, poor fit]"
O=C(/C=C/NCc1cccnc1)c1ccc(-c2ccccc2)cc1,,"inconclusive: 39.8 µM [inhibitor, partial curve, poor fit]"
